Among the data in PubChem BioAssay AID248 (DTP/NCI, 2004) are T/C and survivor count values, retold here.

The list is a part of this screen's results and no random one: it is rich in T/C values a quarter to a half above the control, in often repeated tests (any T/C) and in doses without a T/C. Other doses and runs of a compound stand elsewhere. T/C is the treated group as % of the vehicle group. Some entries give survivors of the animals treated and no T/C: the source files T/C as zero there, which appears to mark a toxic dose or a test without result, not a measured value. Some doses without a T/C left all or most animals alive at the check, yet need not have been tolerated: survival well below the control is almost never listed, so the zero probably covers shortened survival too. Counts of survivors are from the toxicity check (mostly the fifth day) where no day follows; animals may have died later. Schedule codes are those of the source, taken here to give the interval after Q, in days (D) or hours (H), and the number of doses after X. Some entries were tested several times; their values stand side by side, smallest first. Some schedule codes hold Z or #, which are not explained here. Where survival is the endpoint, the PubChem record calls one and a half times the control and up active, and a quarter to a half above the control has no call in these data; cut-offs in other NCI protocols can differ. Marks such as (2×) stand for listed records that agree. Some T/C values carry the count of animals alive at the toxicity check (mostly the fifth day); where none is given, no animal had died by that day.

This assay has as its system L1210 leukemia ip in BDF1 mice, survival T/C. The assay can be described thus: NCI In Vivo Anticancer Drug Screen. Data for tumor model L1210 Leukemia (intraperitoneal) in B6D2F1 (BDF1) mice. As to conditions: T/C endpoint: mean survival time, higher T/C = longer survival.
[1] abbreviates: dose: 400.0 mg/kg/injection, schedule: Q01DX009 (ip), vehicle: Klucel (hydroxypropylcellulose) (HPC).
[2] abbreviates: dose: 400.0 mg/kg/injection, schedule: Q04DX002 (ip), vehicle: saline.
The mark [3] stands for this setting: dose: 100.0 mg/kg/injection, schedule: Q04DX003 (ip), vehicle: saline.
Where [4] appears, read: dose: 200.0 mg/kg/injection, schedule: Q04DX003 (ip), vehicle: saline.
Where [5] appears, read: dose: 400.0 mg/kg/injection, schedule: Q04DX003 (ip), vehicle: saline.
[6] abbreviates: dose: 100.0 mg/kg/injection, schedule: Q01DX001 (ip), vehicle: saline.
Where [7] appears, read: dose: 200.0 mg/kg/injection, schedule: Q01DX001 (ip), vehicle: saline.
The mark [8] stands for this setting: dose: 400.0 mg/kg/injection, schedule: Q01DX001 (ip), vehicle: saline.

Regarding `Nc1ncc(N)c(N)n1`, the T/C (dose: 47.0 mg/kg/injection, schedule: Q01DX Z (ip), vehicle: saline) is 127 % of control; the T/C (dose: 70.0 mg/kg/injection, schedule: Q01DX Z (ip), vehicle: saline) was 125 % of control (2×); the T/C (dose: 106.0 mg/kg/injection, schedule: Q01DX Z (ip), vehicle: carboxymethylcellulose (CMC)) was 142 % of control; the T/C (dose: 106.0 mg/kg/injection, schedule: Q01DX Z (ip), vehicle: other) is 131 % of control; the T/C (dose: 160.0 mg/kg/injection, schedule: Q01DX Z (ip), vehicle: carboxymethylcellulose (CMC)) is 140 % of control; the T/C (dose: 160.0 mg/kg/injection, schedule: Q01DX Z (ip), vehicle: other) was 126 % of control. In addition, the T/C is, setting by setting: (dose: 160.0 mg/kg/injection, schedule: Q01DX Z (ip), vehicle: saline) 135 % of control; (dose: 235.0 mg/kg/injection, schedule: Q01DX009 (ip), vehicle: saline with Tween-80) 128 % of control; (dose: 240.0 mg/kg/injection, schedule: Q01DX Z (ip), vehicle: carboxymethylcellulose (CMC)) 138 % of control; (dose: 240.0 mg/kg/injection, schedule: Q01DX Z (ip), vehicle: other) 132 % of control; (dose: 240.0 mg/kg/injection, schedule: Q01DX Z (ip), vehicle: saline) 132 % of control; (dose: 360.0 mg/kg/injection, schedule: Q01DX009 (ip), vehicle: saline with Tween-80) 133 % of control. The T/C (dose: 360.0 mg/kg/injection, schedule: Q01DX Z (ip), vehicle: other) was 137 % of control; the T/C (dose: 360.0 mg/kg/injection, schedule: Q01DX Z (ip), vehicle: saline) was 139 % of control; the T/C (dose: 400.0 mg/kg/injection, schedule: Q01DX009 (ip), vehicle: saline with Tween-80) was 133 % of control; the T/C (dose: 540.0 mg/kg/injection, schedule: Q01DX Z (ip), vehicle: saline) is 134 % of control [5 of 6 alive].

As to `CSCC(C)(C)NC(=O)NCCCl`, the survivor count (dose: 400.0 mg/kg/injection, schedule: Q04DX002 (ip), vehicle: Klucel (hydroxypropylcellulose) (HPC)) is listed as 3 of 3.

In the case of `Cc1cc(C)c(NC(=O)c2c(Cl)c(Cl)c(Cl)c(Cl)c2C(=O)O)c(C)c1`, the survivor count by setting is: (dose: 200.0 mg/kg/injection, schedule: Q01DX009 (ip), vehicle: Klucel (hydroxypropylcellulose) (HPC)) 4 of 6; under setting [1], 0 of 6.

Consider `C/C=C/C=C\COC(=O)c1ccccc1OCC`, for which, under setting [2], the T/C is 148 % of control.

Regarding `CNC(=O)Oc1cccc(N)c1`, the survivor count (dose: 300.0 mg/kg/injection, schedule: Q01DX001 (ip), vehicle: saline) is reported as 0 of 6.

For the compound `CCN(CC)CC(C)Nc1ccc([N+](=O)[O-])c2sc3ccccc3c(=O)c12` (stereo unspecified), the T/C (dose: 18.0 mg/kg/injection, schedule: Q01DX Z (ip), vehicle: carboxymethylcellulose (CMC)) is 139 % of control; the T/C (dose: 27.0 mg/kg/injection, schedule: Q01DX Z (ip), vehicle: carboxymethylcellulose (CMC)) was 144 % of control; the T/C (dose: 27.0 mg/kg/injection, schedule: Q01DX Z (ip), vehicle: methylcellulose (MC)) is 128 and 131 % of control; the T/C (dose: 30.0 mg/kg/injection, schedule: Q01DX Z (ip), vehicle: other) is 132 % of control; the T/C (dose: 40.0 mg/kg/injection, schedule: Q01DX Z (ip), vehicle: carboxymethylcellulose (CMC)) is 141 % of control; the T/C (dose: 41.0 mg/kg/injection, schedule: Q01DX Z (ip), vehicle: carboxymethylcellulose (CMC)) is 125 % of control. The T/C is 141 % of control (dose: 61.0 mg/kg/injection, schedule: Q01DX Z (ip), vehicle: carboxymethylcellulose (CMC)) and 143 % of control (dose: 92.0 mg/kg/injection, schedule: Q01DX Z (ip), vehicle: carboxymethylcellulose (CMC)). The survivor count is listed as 6 of 6 (dose: 135.0 mg/kg/injection, schedule: Q01DX Z (ip), vehicle: carboxymethylcellulose (CMC)); 5 of 6 (dose: 250.0 mg/kg/injection, schedule: Q01DX Z (ip), vehicle: carboxymethylcellulose (CMC)); 4 of 6 (dose: 500.0 mg/kg/injection, schedule: Q01DX Z (ip), vehicle: carboxymethylcellulose (CMC)).

In the case of `CC[As](=O)(O)c1ccc([N+](=O)[O-])cc1`, the survivor count by setting is: (dose: 200.0 mg/kg/injection, schedule: Q01DX001 (ip), vehicle: saline with Tween-80) 0 of 6; (dose: 400.0 mg/kg/injection, schedule: Q01DX001 (ip), vehicle: saline with Tween-80) 0 of 6.

As to `CN(C)/C=N\N(c1ccccc1)c1ccccc1`, the survivor count (dose: 400.0 mg/kg/injection, schedule: Q04DX002 (ip), vehicle: saline with Tween-80) is 1 of 3.

With `C=C(Cl)C[N+]12CN3CN(CN(C3)C1)C2`, the survivor count is 1 of 6 under setting [3], 0 of 6 under setting [4] and 0 of 6 under setting [5].

For `CC1(C)C2CCC13CC(=O)OC3C2` (stereo unspecified), the survivor count (dose: 6.25 mg/kg/injection, schedule: Q04DX003 (ip), vehicle: saline) is given as 6 of 6; the survivor count (dose: 12.5 mg/kg/injection, schedule: Q04DX003 (ip), vehicle: saline) is reported as 6 of 6; the survivor count (dose: 23.0 mg/kg/injection, schedule: Q01DX009 (ip), vehicle: acetone) is reported as 2 of 6; the survivor count (dose: 25.0 mg/kg/injection, schedule: Q04DX003 (ip), vehicle: saline) is 4 of 6; the survivor count (dose: 35.0 mg/kg/injection, schedule: Q01DX009 (ip), vehicle: acetone) is on record as 0 of 6; the survivor count under setting [6] is reported as 0 of 6. Further, the survivor count under setting [7] was 1 of 6 and the survivor count under setting [8] is recorded as 0 of 6.

Turning to `NCCSC1CCCCC1`, under setting [2], the survivor count is 0 of 3.

As for `Cc1cccc(C(=O)O)n1.[Cu+2]`, the survivor count (dose: 20.0 mg/kg/injection, schedule: Q01DX001 (ip), vehicle: saline) is 2 of 4; the survivor count (dose: 40.0 mg/kg/injection, schedule: Q01DX001 (ip), vehicle: saline) is 0 of 4; the survivor count (dose: 80.0 mg/kg/injection, schedule: Q01DX001 (ip), vehicle: saline) is given as 0 of 4; the survivor count under setting [6] was 0 of 4; the survivor count under setting [7] is on record as 0 of 4; the survivor count under setting [8] is on record as 0 of 4.

As to `Nc1nc(N)c(C=Nc2ccc(Cl)c(Cl)c2)c(Nc2ccc(Cl)c(Cl)c2)n1`, the survivor count runs as follows: (dose: 50.0 mg/kg/injection, schedule: Q01DX001 (ip), vehicle: carboxymethylcellulose (CMC)) 4 of 4; (dose: 100.0 mg/kg/injection, schedule: Q01DX001 (ip), vehicle: carboxymethylcellulose (CMC)) 4 of 4; (dose: 200.0 mg/kg/injection, schedule: Q01DX001 (ip), vehicle: carboxymethylcellulose (CMC)) 2 of 4; (dose: 400.0 mg/kg/injection, schedule: Q01DX001 (ip), vehicle: carboxymethylcellulose (CMC)) 0 of 4.

As for `O=[N+]([O-])/C=C/c1cccc([N+](=O)[O-])c1`, the survivor count is, setting by setting: (dose: 100.0 mg/kg/injection, schedule: Q04DX003 (ip), vehicle: Klucel (hydroxypropylcellulose) (HPC)) 4 of 6 and 5 of 6; (dose: 200.0 mg/kg/injection, schedule: Q04DX003 (ip), vehicle: Klucel (hydroxypropylcellulose) (HPC)) 5 of 6; (dose: 400.0 mg/kg/injection, schedule: Q04DX003 (ip), vehicle: Klucel (hydroxypropylcellulose) (HPC)) 3 of 6.

Consider `c1ccc2c3c([nH]c2c1)CCCC3`, for which the survivor count under setting [1] was 2 of 6.

As to `CCN(CC)CCCOC(=O)C(c1ccccc1)C1CCCCC1` (stereo unspecified), the survivor count under setting [3] was 1 of 6, the survivor count under setting [4] is recorded as 0 of 6 and the survivor count under setting [5] is listed as 0 of 6.

Consider `Clc1ccc(C(c2ccc(Cl)cc2)c2ccccn2)cc1`, for which the survivor count under setting [1] is recorded as 2 of 6.

Take `OC(c1ccccc1)(c1ccccc1)c1ccsc1`: the survivor count (dose: 200.0 mg/kg/injection, schedule: Q01DX009 (ip), vehicle: saline with Tween-80) was 3 of 3.
